Some entries share one result that the patent states for a list of compounds. For at least one compound, name, drawing or mass did not settle the structure.
Tested on: Plasmodium falciparum strain 3D7
Experiment: Ionophoric activity assay: growth inhibition with KCl or MgCl2 supplementation
Format: cell-based
Details: MgCl2 220 μg/mL versus control

## CC(C)[C@@H](N)C(=O)O[C@H](C)[C@@H]1C/C=C\CC[C@H](O)C(C)(C)[C@@H]2CC[C@@H](C)[C@@]3(O2)O[B-]24O[C@@H](C(=O)O1)[C@]1(O[C@@H](CC[C@H]1C)C(C)(C)[C@H](O)CCC[C@@H]1C[C@H](OC(=O)[C@@H]3O2)[C@@H](C)O1)O4.[H+] [Boromycin]
  decrease of IC50 in the presence of MgCl2: 3-5 fold

Source: US20240277738A1, “GAMETOCYTOCIDAL COMPOUND” (Eberhard Karls Universität Tübingen Medizinische Fakultãt, priority 2021, published 2024)
